For 72 compounds, cell viability results are on record in the supplement of paper PMC3682954.

The test system of the assay is RAW 264.7. Nature of the assay: cell viability (MTT) relative to vehicle control; higher = more viable cells. As to conditions: stimulus: HMGB1 5 ug/ml, 18 h.
[1] abbreviates: compound concentration: 1 ug/ml.

Several values for one entry are separate records, joined by “and”; a condition that tells them apart may be missing. Equal values may be shown once. Where a name gives a salt, the structure may show the parent alone. ± gives the standard deviation of the averaged measurements. This is one part of the list. Many values rest on one well or one pass, so single values are uncertain.

Take `C=C1C[C@@]23CC[C@H]4[C@@](C)(CCC[C@@]4(C)C(=O)O)[C@@H]2CC[C@]1(O)C3` [Steviol]: where the note is “compound concentration: 3 uM”, the cell viability was determined as 121%.
On the same count and under the same terms, with `O=c1cnn([C@@H]2O[C@H](CO)[C@@H](O)[C@H]2O)c(=O)[nH]1` the figure was 87.1%.
On to `O=c1cnn([C@@H]2O[C@H](CO)[C@@H](O)[C@H]2O)c(=O)[nH]1` [6-Azauridine], for which, under setting [1], the cell viability is 93.1%.
On the same count and under the same terms, the result for `O=C(OC[C@H]1O[C@@H](n2ccc(=O)[nH]c2=O)[C@H](OC(=O)c2ccccc2)[C@@H]1OC(=O)c1ccccc1)c1ccccc1` [2',3',5'-Tri-O-benzoyluridine] reads 99%.
In the case of `OC[C@H]1O[C@@H](Oc2ccc3cc(Br)ccc3c2)[C@H](O)[C@@H](O)[C@H]1O` [6-Bromo-2-naphthyl-beta-D-galactopyranoside], under setting [1], the cell viability stood at 103%.
Take `CC(=O)O[C@@]12CO[C@@H]1C[C@H](O)[C@@]1(C)C(=O)[C@H](O)C3=C(C)[C@@H](OC(=O)[C@H](O)[C@@H](NC(=O)OC(C)(C)C)c4ccccc4)C[C@@](O)([C@@H](OC(=O)c4ccccc4)[C@H]21)C3(C)C` [Docetaxel]: the cell viability (compound concentration: 3 uM) is 99.1 ± 5.7%.
As to `CC(=O)O[C@@]12CO[C@@H]1C[C@H](O)[C@@]1(C)C(=O)[C@H](O)C3=C(C)[C@@H](OC(=O)[C@H](O)[C@@H](NC(=O)OC(C)(C)C)c4ccccc4)C[C@@](O)([C@@H](OC(=O)c4ccccc4)[C@H]21)C3(C)C`, the cell viability (compound concentration: 3 uM) is 92.1%.
For `N[C@H](CO)Cc1cnc[nH]1` [L(-)-Histidinol dihydrochloride], the cell viability under setting [1] is 106%.
Take `C=CC1=C(C)c2cc3[nH]c(cc4nc(cc5[nH]c(cc1n2)c(C)c5CCC(=O)O)C(CCC(=O)O)=C4C)c(C)c3C=C`: the cell viability (compound concentration: 3 uM) is 64.4%.
Still for that read-out and setting: with `C=CC1=C(C)c2cc3[nH]c(cc4nc(cc5[nH]c(cc1n2)c(C)c5CCC(=O)O)C(CCC(=O)O)=C4C)c(C)c3C=C` [Protoporphyrin IX disodium] the figure was 35.2%; with `CN(C)CCN(Cc1ccccc1)c1ccccn1`, 105% and 94.4%; with `CN(C)CCN(Cc1ccccc1)c1ccccn1` [Tripelennamine hydrochloride], 102%.
Still for that read-out and setting: the result for `CC1CNc2c(cccc2S(=O)(=O)N[C@@H](CCCNC(=N)N)C(=O)N2CC[C@@H](C)C[C@@H]2C(=O)O)C1` (some centres undefined) [Argatroban] reads 104 ± 2.1%.
Take `CC1CNc2c(cccc2S(=O)(=O)N[C@@H](CCCNC(=N)N)C(=O)N2CC[C@@H](C)C[C@@H]2C(=O)O)C1` (some centres undefined): the cell viability (compound concentration: 3 uM) amounted to 92.8%.
Same read-out and setting: the result for `Nc1ccn([C@@H]2O[C@H](CO)[C@@H](O)C2(F)F)c(=O)n1` [Gemcitabine] reads 78.3 ± 3.3%; that for `COc1ccccc1N1CCN(CCN(C(=O)C2CCCCC2)c2ccccn2)CC1`, 109%; that for `CN1C(=O)CC(c2ccccc2)C1=O` (centres undefined) [Phensuximide], 86.6%.
On the same count and under the same terms, with `C[n+]1cc2c3c(ccc2c2ccc4cc5c(cc4c21)OCO5)OCO3` the figure was 60.2 ± 58%.
For the compound `C[n+]1cc2c3c(ccc2c2ccc4cc5c(cc4c21)OCO5)OCO3` [Sanguinarine chloride], the cell viability (compound concentration: 3 uM) is 24%.
The same measure, in the same setting: the result for `Clc1ccc(CSC(Cn2ccnc2)c2ccc(Cl)cc2Cl)cc1` (centres undefined) reads 108%.
On the same count and under the same terms, the result for `Clc1ccc(CSC(Cn2ccnc2)c2ccc(Cl)cc2Cl)cc1` (centres undefined) [Sulconazole nitrate] reads 108%; that for `Nc1ncnc2c1ncn2[C@@H]1O[C@H](CO)[C@@H](O)[C@H]1O`, 103%; that for `Nc1ncnc2c1ncn2[C@@H]1O[C@H](CO)[C@@H](O)[C@H]1O` [Adenosine], 105%.
On to `Cc1cccc(-c2cc(=O)c3cc(C)ccc3o2)c1` [3',6-Dimethylflavone], for which the cell viability under setting [1] came out at 98%.
Same read-out and setting: the result for `Nc1ncnc2c1[nH]c(=S)n2C1OC(CO)C(O)C1O` (centres undefined) reads 91.6%.
As to `O=c1[nH]c(=S)[nH]c(-c2ccccc2)c1Cc1c(O)ccc2ccccc12` [Cambinol], the cell viability (compound concentration: 3 uM) came out at 97.1%.
With `CCCN(CCC)S(=O)(=O)c1ccc(C(=O)O)cc1`, the cell viability (compound concentration: 3 uM) stood at 98.5%.
Same read-out and setting: with `CCCN(CCC)S(=O)(=O)c1ccc(C(=O)O)cc1` [Probenecid] the figure was 91.1%; with `C[C@]12CC[C@@H]3c4ccc(O)cc4CC[C@H]3[C@@H]1CC[C@@H]2O` [Estradiol], 104%.
In the case of `C[C@]12CC[C@@H]3c4ccc(O)cc4CC[C@H]3[C@@H]1CC[C@@H]2O`, the cell viability (compound concentration: 3 uM) is 108% and 98.8%.
As to `C[C@]12CC[C@@H]3c4ccc(O)cc4CC[C@H]3[C@@H]1CC[C@@H]2O` [beta-Estradiol], the cell viability (compound concentration: 3 uM) worked out at 107%.
Still for that read-out and setting: the result for `C[C@]12CC[C@@H]3c4ccc(O)cc4CC[C@H]3[C@@H]1CC[C@@H]2O` [Estradiol-17 beta] reads 111%.
For `CCSc1ncnc2nc[nH]c12` [6-ethylmercaptopurine], the cell viability under setting [1] stood at 96.7%.
On to `CN(C)CCOC(c1ccccc1)c1ccccc1`, for which the cell viability (compound concentration: 3 uM) was found to be 98.6 ± 0.78%.
In the case of `CN(C)CCOC(c1ccccc1)c1ccccc1` [Diphenhydramine hydrochloride], the cell viability (compound concentration: 3 uM) was found to be 102 ± 5.5%.
In the case of `CN(C)CCOC(c1ccccc1)c1ccccc1` [Diphenhydramine], the cell viability (compound concentration: 3 uM) was determined as 117%.
Take `COc1ccc2[nH]c([S+]([O-])Cc3ncc(C)c(OC)c3C)nc2n1` (centres undefined) [Tenatoprazole]: where the note is “compound concentration: 3 uM”, the cell viability is 101 ± 10%.
Same read-out and setting: the result for `CN(C)CC/C=C1/c2ccccc2Sc2ccc(Cl)cc21` [Chlorprothixene hydrochloride] reads 97.1 ± 5.1%; that for `CN(C)CC/C=C1/c2ccccc2Sc2ccc(Cl)cc21`, 94.6%.
Same read-out and setting: the result for `NC(Cc1cc(I)c(Oc2cc(I)c(O)c(I)c2)c(I)c1)C(=O)O` (centres undefined) [Thyroxine (L)] reads 138%; that for `OC(CN1CCC(Cc2ccc(F)cc2)CC1)c1ccc(Cl)cc1` (centres undefined) [Eliprodil], 95.8%.
Regarding `CC(=O)[C@H]1CC[C@H]2[C@@H]3CCC4=CC(=O)CC[C@]4(C)[C@H]3CC[C@]12C`, the cell viability (compound concentration: 3 uM) worked out at 104 ± 5.6%.
On to `CC(=O)[C@H]1CC[C@H]2[C@@H]3CCC4=CC(=O)CC[C@]4(C)[C@H]3CC[C@]12C` [Progesterone], for which the cell viability by setting is: under setting [1], 105%; (compound concentration: 3 uM) 126 ± 16%.
Consider `O=C1C[C@@H](c2ccc(O)c(O)c2)Oc2cc(O)cc(O)c21` [Eriodictyol;  (3',4',5,7-tetrahydroxyflavanone)], for which, under setting [1], the cell viability was found to be 91.8%.
With `CN[C@H](CC(=O)O)C(=O)O` [N-Methyl-D-aspartic acid], the cell viability (compound concentration: 3 uM) turned out to be 104%.
In the case of `CN[C@@H]1[C@H](O)[C@H](NC)[C@H]2O[C@@]3(O)C(=O)C[C@@H](C)O[C@H]3O[C@@H]2[C@H]1O` [Spectinomycin dihydrochloride pentahydrate], the cell viability under setting [1] worked out at 92.3%.
As for `CN[C@@H]1[C@H](O)[C@H](NC)[C@H]2O[C@@]3(O)C(=O)C[C@@H](C)O[C@H]3O[C@@H]2[C@H]1O` [Spectinomycin dihydrochloride], the cell viability (compound concentration: 3 uM) is 98.6%.
The same measure, in the same setting: with `CN[C@@H]1[C@H](O)[C@H](NC)[C@H]2O[C@@]3(O)C(=O)C[C@@H](C)O[C@H]3O[C@@H]2[C@H]1O` the figure was 101%; with `CN[C@@H]1[C@H](O)[C@H](NC)[C@H]2O[C@@]3(O)C(=O)C[C@@H](C)O[C@H]3O[C@@H]2[C@H]1O` [Spectinomycin], 113%.
Still for that read-out and setting: the result for `NS(=O)(=O)c1cc2c(cc1Cl)NC(C(Cl)Cl)NS2(=O)=O` (centres undefined) [Trichlormethiazide] reads 111%.
Take `NS(=O)(=O)c1cc2c(cc1Cl)NC(C(Cl)Cl)NS2(=O)=O` (centres undefined): for the setting “compound concentration: 3 uM”, the cell viability came out at 108%.
Still for that read-out and setting: the result for `NS(=O)(=O)c1cc2c(cc1Cl)NC(C(Cl)Cl)NS2(=O)=O` (centres undefined) [Trichloromethiazide] reads 105%.
Still for that read-out and setting: with `CC(C)Nc1cccnc1N1CCN(C(=O)c2cc3cc(NS(C)(=O)=O)ccc3[nH]2)CC1` [Delavirdine] the figure was 105%; with `Cn1c(=O)c2[nH]c(-c3ccccc3)nc2n(C)c1=O` [1,3-Dimethyl-8-phenylxanthine], 98.7%; with `CN(CCO)CC(O)Cn1cnc2c1c(=O)n(C)c(=O)n2C` (centres undefined), 100%.
The same measure, in the same setting: with `C#Cc1cccc(Nc2ncnc3cc(OCCOC)c(OCCOC)cc23)c1` [Erlotinib] the figure was 109 ± 10%; with `Cc1onc(-c2ccccc2Cl)c1C(=O)N[C@@H]1C(=O)N2[C@@H]1SC(C)(C)[C@@H]2C(=O)O`, 103%; with `Cc1onc(-c2ccccc2Cl)c1C(=O)N[C@@H]1C(=O)N2[C@@H]1SC(C)(C)[C@@H]2C(=O)O` [Cloxacillin sodium salt], 93.9%.
Take `CCN(CC)c1ncnc2c1ncn2C1OC(CO)C(O)C1O` (centres undefined): under setting [1], the cell viability came to 90.2%.
For `CN[C@@H]1[C@@H](O[C@H]2O[C@H](CO)[C@@H](N)[C@H](O)[C@H]2O)OC2C[C@@H](N)[C@@H](O[C@H]3[C@H](O)[C@@H](O)[C@H](N)C[C@@H]3N)OC2[C@@H]1O` (some centres undefined) [Apramycin], the cell viability (compound concentration: 3 uM) was 105 ± 16%.
Still for that read-out and setting: the result for `CN[C@@H]1[C@@H](O[C@H]2O[C@H](CO)[C@@H](N)[C@H](O)[C@H]2O)OC2C[C@@H](N)[C@@H](O[C@H]3[C@H](O)[C@@H](O)[C@H](N)C[C@@H]3N)OC2[C@@H]1O` (some centres undefined) reads 103%; that for `C[C@@H]1NC(=O)[C@@H](N)CNC(=O)[C@H](C2CCNC(=N)N2)NC(=O)/C(=C/NC(N)=O)NC(=O)[C@H](CNC(=O)CC(N)CCCN)NC1=O.N=C1NCC[C@H]([C@@H]2NC(=O)/C(=C/NC(N)=O)NC(=O)[C@H](CNC(=O)C[C@@H](N)CCCN)NC(=O)[C@H](CO)NC(=O)[C@@H](N)CNC2=O)N1`, 105%; that for `CC12CCC(CC1=O)C2(C)C` (centres undefined), 107%.
Turning to `CC12CCC(CC1=O)C2(C)C` [D-Camphor], under setting [1], the cell viability worked out at 101%.
`OC[C@H]1NC[C@H](O)[C@@H](O)[C@@H]1O` [1-Deoxynojirimycin hydrochloride]: the cell viability (compound concentration: 3 uM) was 96%.
On the same count and under the same terms, with `CCCCCCCCCCCCCCCCCCCCCCO` the figure was 109%.
Same read-out and setting: the result for `NCCCC(=O)O` [gamma-AMINOBUTYRIC ACID] reads 103%; that for `Cc1c(-c2ccccc2)oc2c(C(=O)OCCN3CCCCC3)cccc2c1=O` [Flavoxate hydrochloride], 101%.
Take `Cn1cnc2c1c(=O)[nH]c(=O)n2C` [Theobromine]: the cell viability is, setting by setting: under setting [1], 100%; (compound concentration: 3 uM) 110.6 ± 0.72%.
Consider `Cn1cnc2c1c(=O)[nH]c(=O)n2C`, for which the cell viability (compound concentration: 3 uM) was determined as 104%.
On the same count and under the same terms, with `CCOc1ccc2ccccc2c1C(=O)N[C@@H]1C(=O)N2[C@@H]1SC(C)(C)[C@@H]2C(=O)O` [Nafcillin sodium salt monohydrate] the figure was 98.6%; with `CCOc1ccc2ccccc2c1C(=O)N[C@@H]1C(=O)N2[C@@H]1SC(C)(C)[C@@H]2C(=O)O`, 109%.
